Our source for the binding values is PMC3718702.

Amino acid sequences for entries named in this document (tags omitted). Residues count along the entry.
UniProt P02769, residues 25-607: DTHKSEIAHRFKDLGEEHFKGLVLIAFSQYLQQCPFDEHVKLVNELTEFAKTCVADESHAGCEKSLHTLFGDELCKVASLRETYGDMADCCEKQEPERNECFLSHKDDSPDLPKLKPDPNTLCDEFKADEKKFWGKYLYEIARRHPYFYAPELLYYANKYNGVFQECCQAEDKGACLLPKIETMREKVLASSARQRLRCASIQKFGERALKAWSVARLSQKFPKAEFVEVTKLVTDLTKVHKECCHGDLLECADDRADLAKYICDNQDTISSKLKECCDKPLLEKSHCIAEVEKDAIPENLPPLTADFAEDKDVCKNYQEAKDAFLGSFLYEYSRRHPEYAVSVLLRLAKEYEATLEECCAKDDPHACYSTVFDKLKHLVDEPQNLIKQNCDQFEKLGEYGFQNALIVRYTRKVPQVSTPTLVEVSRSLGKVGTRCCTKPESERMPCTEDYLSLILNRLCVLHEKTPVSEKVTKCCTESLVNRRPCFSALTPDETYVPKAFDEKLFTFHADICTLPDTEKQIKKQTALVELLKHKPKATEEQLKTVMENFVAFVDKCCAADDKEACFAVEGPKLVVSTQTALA
UniProt P10809, residues 27-573: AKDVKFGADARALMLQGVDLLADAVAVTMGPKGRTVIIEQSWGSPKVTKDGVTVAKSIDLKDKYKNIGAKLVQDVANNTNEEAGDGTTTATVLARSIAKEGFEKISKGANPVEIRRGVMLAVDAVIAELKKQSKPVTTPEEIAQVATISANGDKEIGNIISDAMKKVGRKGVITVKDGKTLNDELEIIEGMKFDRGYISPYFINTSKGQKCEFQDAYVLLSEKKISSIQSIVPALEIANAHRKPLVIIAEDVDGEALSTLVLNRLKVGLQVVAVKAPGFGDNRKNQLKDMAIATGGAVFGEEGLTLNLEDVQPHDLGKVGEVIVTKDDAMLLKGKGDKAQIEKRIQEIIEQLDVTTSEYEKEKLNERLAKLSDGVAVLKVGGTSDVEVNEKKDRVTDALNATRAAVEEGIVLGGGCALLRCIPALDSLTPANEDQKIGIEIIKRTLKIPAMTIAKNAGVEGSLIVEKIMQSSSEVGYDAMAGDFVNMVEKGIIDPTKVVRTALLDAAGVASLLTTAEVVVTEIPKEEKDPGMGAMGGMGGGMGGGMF

These are yes or no findings as the source states them, for the method shown. Binding seen in cells or lysates may run through a third protein. Some binding calls cover weakened binding; strength is not graded here.

This assay addresses bovine serum albumin (bovine) (UniProt P02769). As to the kind of experiment: co-IP; 2 mg lysate of untreated and azacytidine-treated myeloma cells incubated with 6 ug anti-bovine albumin antibody and protein A/G agarose beads overnight at 4°C; three washes with cell lysis buffer; eluate blotted with anti-HSP60.

As for “60 kDa heat shock protein, mitochondrial (from UniProt P10809 27-573)”, the binding result is on record as “binds”.
